Laboratory results taken from paper doi:10.1101/2020.04.29.065136.

Sequences of proteins named here, by UniProt entry; tags and fusion partners are left off.
UniProt P60879: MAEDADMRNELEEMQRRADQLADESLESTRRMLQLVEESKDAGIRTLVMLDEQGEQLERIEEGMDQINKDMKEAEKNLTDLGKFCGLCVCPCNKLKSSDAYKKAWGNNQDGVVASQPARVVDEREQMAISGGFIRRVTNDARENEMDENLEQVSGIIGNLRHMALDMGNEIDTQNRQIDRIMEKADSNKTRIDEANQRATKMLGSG
UniProt P29387: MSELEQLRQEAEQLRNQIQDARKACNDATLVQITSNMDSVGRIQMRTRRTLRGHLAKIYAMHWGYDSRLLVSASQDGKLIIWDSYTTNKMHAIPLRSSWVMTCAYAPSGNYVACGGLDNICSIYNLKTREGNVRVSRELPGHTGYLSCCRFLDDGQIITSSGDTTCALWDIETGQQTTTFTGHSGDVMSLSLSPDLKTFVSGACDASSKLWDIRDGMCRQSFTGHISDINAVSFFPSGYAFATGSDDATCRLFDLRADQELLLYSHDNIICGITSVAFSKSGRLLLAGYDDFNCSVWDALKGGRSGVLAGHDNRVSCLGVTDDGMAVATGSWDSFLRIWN

How the values were obtained:
[1] = target: SNAP25 (mouse (endogenous in mouse brain synaptosomes)) (UniProt P60879); assay: condition: only in FLAG-α2aAR synaptosomes
[2] = target: SNAP25 (mouse (endogenous in mouse brain synaptosomes)) (UniProt P60879); assay: affinity purification with mass spectrometry

- binding [1]: no binding
- binding [2]: binds
Substance: Gβ4 (from UniProt P29387 1-340)

No constants are given. Whether binding was seen depends on the method and setting. Binding seen in cells or lysates may run through a third protein. A yes stands for co-enrichment or nearness to the bait. Other partners may have been found. For some assays here: No binding means not detected with the bait.
